Values are animals surviving of animals treated; these mice carried no tumour. Counts of survivors are from the toxicity check (mostly the fifth day) where no day follows; animals may have died later. Schedules are NCI's codes, taken here to give the interval after Q, in days (D) or hours (H), and the number of doses after X.
System: CD2F1 mice, nontumored, toxicity/survival
Assay: NCI In Vivo Anticancer Drug Screen. Data for tumor model Nontumored Animals (Toxicity Test) in CD2F1 (CDF1) mice

Nc1nc([Se])c2ncn(C3OC(CO)C(O)C3O)c2n1 (stereo unspecified)
survivor count (dose: 0.25 mg/kg/injection, schedule: Q03HX024 (ip), vehicle: DMSO): 8 of 8
survivor count (dose: 0.5 mg/kg/injection, schedule: Q03HX016 (ip), vehicle: DMSO): 8 of 8
survivor count (dose: 0.5 mg/kg/injection, schedule: Q03HX024 (ip), vehicle: DMSO): 8 of 8
survivor count (dose: 1.0 mg/kg/injection, schedule: Q01DX009 (ip), vehicle: DMSO): 8 of 8
survivor count (dose: 1.0 mg/kg/injection, schedule: Q01DX009 (sc), vehicle: DMSO): 8 of 8
survivor count (dose: 1.0 mg/kg/injection, schedule: Q03HX008 (ip), vehicle: DMSO): 8 of 8
survivor count (dose: 1.0 mg/kg/injection, schedule: Q03HX016 (ip), vehicle: DMSO): 8 of 8
survivor count (dose: 1.0 mg/kg/injection, schedule: Q03HX024 (ip), vehicle: DMSO): 8 of 8
survivor count (dose: 2.0 mg/kg/injection, schedule: Q01DX009 (ip), vehicle: DMSO): 8 of 8
survivor count (dose: 2.0 mg/kg/injection, schedule: Q01DX009 (sc), vehicle: DMSO): 8 of 8
survivor count (dose: 2.0 mg/kg/injection, schedule: Q03HX008 (ip), vehicle: DMSO): 8 of 8
survivor count (dose: 2.0 mg/kg/injection, schedule: Q03HX016 (ip), vehicle: DMSO): 8 of 8
survivor count (dose: 2.0 mg/kg/injection, schedule: Q03HX024 (ip), vehicle: DMSO): 8 of 8
survivor count (dose: 2.0 mg/kg/injection, schedule: Q04DX003 (ip), vehicle: DMSO): 8 of 8
survivor count (dose: 2.0 mg/kg/injection, schedule: Q04DX003 (ip), vehicle: clinical formulation): 4 of 4
survivor count (dose: 2.0 mg/kg/injection, schedule: Q04DX003 (ip), vehicle: saline): 4 of 4
survivor count (dose: 4.0 mg/kg/injection, schedule: Q01DX009 (ip), vehicle: DMSO): 8 of 8
survivor count (dose: 4.0 mg/kg/injection, schedule: Q01DX009 (oral), vehicle: DMSO): 8 of 8
survivor count (dose: 4.0 mg/kg/injection, schedule: Q01DX009 (sc), vehicle: DMSO): 8 of 8
survivor count (dose: 4.0 mg/kg/injection, schedule: Q03HX008 (ip), vehicle: DMSO): 8 of 8
survivor count (dose: 4.0 mg/kg/injection, schedule: Q03HX016 (ip), vehicle: DMSO): 8 of 8
survivor count (dose: 4.0 mg/kg/injection, schedule: Q03HX024 (ip), vehicle: DMSO): 8 of 8
survivor count (dose: 4.0 mg/kg/injection, schedule: Q04DX003 (ip), vehicle: DMSO): 8 of 8
survivor count (dose: 4.0 mg/kg/injection, schedule: Q04DX003 (ip), vehicle: clinical formulation): 4 of 4
survivor count (dose: 4.0 mg/kg/injection, schedule: Q04DX003 (ip), vehicle: saline): 4 of 4
survivor count (dose: 4.0 mg/kg/injection, schedule: Q08DX002 (ip), vehicle: DMSO): 8 of 8
survivor count (dose: 8.0 mg/kg/injection, schedule: Q01DX001 (ip), vehicle: DMSO): 8 of 8
survivor count (dose: 8.0 mg/kg/injection, schedule: Q01DX001 (sc), vehicle: DMSO): 8 of 8
survivor count (dose: 8.0 mg/kg/injection, schedule: Q01DX009 (ip), vehicle: DMSO): 8 of 8
survivor count (dose: 8.0 mg/kg/injection, schedule: Q01DX009 (oral), vehicle: DMSO): 8 of 8
survivor count (dose: 8.0 mg/kg/injection, schedule: Q01DX009 (sc), vehicle: DMSO): 8 of 8
survivor count (dose: 8.0 mg/kg/injection, schedule: Q03HX008 (ip), vehicle: DMSO): 8 of 8
survivor count (dose: 8.0 mg/kg/injection, schedule: Q03HX016 (ip), vehicle: DMSO): 8 of 8
survivor count (dose: 8.0 mg/kg/injection, schedule: Q03HX024 (ip), vehicle: DMSO): 8 of 8
survivor count (dose: 8.0 mg/kg/injection, schedule: Q04DX003 (ip), vehicle: DMSO): 8 of 8
survivor count (dose: 8.0 mg/kg/injection, schedule: Q04DX003 (ip), vehicle: clinical formulation): 4 of 4
survivor count (dose: 8.0 mg/kg/injection, schedule: Q04DX003 (ip), vehicle: saline): 4 of 4
survivor count (dose: 8.0 mg/kg/injection, schedule: Q08DX002 (ip), vehicle: DMSO): 8 of 8
survivor count (dose: 16.0 mg/kg/injection, schedule: Q01DX001 (ip), vehicle: DMSO): 8 of 8
survivor count (dose: 16.0 mg/kg/injection, schedule: Q01DX001 (oral), vehicle: DMSO): 8 of 8
survivor count (dose: 16.0 mg/kg/injection, schedule: Q01DX001 (sc), vehicle: DMSO): 8 of 8
survivor count (dose: 16.0 mg/kg/injection, schedule: Q01DX009 (ip), vehicle: DMSO): 8 of 8
survivor count (dose: 16.0 mg/kg/injection, schedule: Q01DX009 (oral), vehicle: DMSO): 8 of 8
survivor count (dose: 16.0 mg/kg/injection, schedule: Q01DX009 (sc), vehicle: DMSO): 8 of 8
survivor count (dose: 16.0 mg/kg/injection, schedule: Q03HX008 (ip), vehicle: DMSO): 4 of 8
survivor count (dose: 16.0 mg/kg/injection, schedule: Q03HX016 (ip), vehicle: DMSO): 4 of 8
survivor count (dose: 16.0 mg/kg/injection, schedule: Q03HX024 (ip), vehicle: DMSO): 0 of 8
survivor count (dose: 16.0 mg/kg/injection, schedule: Q04DX003 (ip), vehicle: DMSO): 8 of 8
survivor count (dose: 16.0 mg/kg/injection, schedule: Q04DX003 (ip), vehicle: clinical formulation): 4 of 4
survivor count (dose: 16.0 mg/kg/injection, schedule: Q04DX003 (ip), vehicle: saline): 4 of 4
survivor count (dose: 16.0 mg/kg/injection, schedule: Q08DX002 (ip), vehicle: DMSO): 8 of 8
survivor count (dose: 32.0 mg/kg/injection, schedule: Q01DX001 (ip), vehicle: DMSO): 8 of 8
survivor count (dose: 32.0 mg/kg/injection, schedule: Q01DX001 (oral), vehicle: DMSO): 8 of 8
survivor count (dose: 32.0 mg/kg/injection, schedule: Q01DX001 (sc), vehicle: DMSO): 7 of 8
survivor count (dose: 32.0 mg/kg/injection, schedule: Q01DX009 (ip), vehicle: DMSO): 8 of 8
survivor count (dose: 32.0 mg/kg/injection, schedule: Q01DX009 (oral), vehicle: DMSO): 8 of 8
survivor count (dose: 32.0 mg/kg/injection, schedule: Q01DX009 (sc), vehicle: DMSO): 8 of 8
survivor count (dose: 32.0 mg/kg/injection, schedule: Q03HX008 (ip), vehicle: DMSO): 0 of 8
survivor count (dose: 32.0 mg/kg/injection, schedule: Q03HX016 (ip), vehicle: DMSO): 0 of 8
survivor count (dose: 32.0 mg/kg/injection, schedule: Q04DX003 (ip), vehicle: DMSO): 8 of 8
survivor count (dose: 32.0 mg/kg/injection, schedule: Q04DX003 (ip), vehicle: clinical formulation): 4 of 4
survivor count (dose: 32.0 mg/kg/injection, schedule: Q04DX003 (ip), vehicle: saline): 4 of 4
survivor count (dose: 32.0 mg/kg/injection, schedule: Q08DX002 (ip), vehicle: DMSO): 7 of 7
survivor count (dose: 64.0 mg/kg/injection, schedule: Q01DX001 (ip), vehicle: DMSO): 8 of 8
survivor count (dose: 64.0 mg/kg/injection, schedule: Q01DX001 (oral), vehicle: DMSO): 8 of 8
survivor count (dose: 64.0 mg/kg/injection, schedule: Q01DX001 (sc), vehicle: DMSO): 8 of 8
survivor count (dose: 64.0 mg/kg/injection, schedule: Q01DX009 (ip), vehicle: DMSO): 8 of 8
survivor count (dose: 64.0 mg/kg/injection, schedule: Q01DX009 (oral), vehicle: DMSO): 8 of 8
survivor count (dose: 64.0 mg/kg/injection, schedule: Q01DX009 (sc), vehicle: DMSO): 8 of 8
survivor count (dose: 64.0 mg/kg/injection, schedule: Q03HX008 (ip), vehicle: DMSO): 0 of 8
survivor count (dose: 64.0 mg/kg/injection, schedule: Q04DX003 (ip), vehicle: DMSO): 8 of 8
survivor count (dose: 64.0 mg/kg/injection, schedule: Q04DX003 (ip), vehicle: clinical formulation): 4 of 4
survivor count (dose: 64.0 mg/kg/injection, schedule: Q04DX003 (ip), vehicle: saline): 3 of 4
survivor count (dose: 64.0 mg/kg/injection, schedule: Q08DX002 (ip), vehicle: DMSO): 8 of 8
survivor count (dose: 128.0 mg/kg/injection, schedule: Q01DX001 (ip), vehicle: DMSO): 7 of 8
survivor count (dose: 128.0 mg/kg/injection, schedule: Q01DX001 (oral), vehicle: DMSO): 8 of 8
survivor count (dose: 128.0 mg/kg/injection, schedule: Q01DX001 (sc), vehicle: DMSO): 6 of 8
survivor count (dose: 128.0 mg/kg/injection, schedule: Q01DX009 (oral), vehicle: DMSO): 1 of 8
survivor count (dose: 128.0 mg/kg/injection, schedule: Q04DX003 (ip), vehicle: DMSO): 6 of 8
survivor count (dose: 128.0 mg/kg/injection, schedule: Q04DX003 (ip), vehicle: clinical formulation): 4 of 4
survivor count (dose: 128.0 mg/kg/injection, schedule: Q04DX003 (ip), vehicle: saline): 1 of 4
survivor count (dose: 128.0 mg/kg/injection, schedule: Q08DX002 (ip), vehicle: DMSO): 6 of 8
survivor count (dose: 256.0 mg/kg/injection, schedule: Q01DX001 (ip), vehicle: DMSO): 0 of 8
survivor count (dose: 256.0 mg/kg/injection, schedule: Q01DX001 (oral), vehicle: DMSO): 2 of 8
survivor count (dose: 256.0 mg/kg/injection, schedule: Q01DX001 (sc), vehicle: DMSO): 0 of 8
survivor count (dose: 256.0 mg/kg/injection, schedule: Q01DX009 (oral), vehicle: DMSO): 0 of 8
survivor count (dose: 256.0 mg/kg/injection, schedule: Q08DX002 (ip), vehicle: DMSO): 0 of 8
survivor count (dose: 512.0 mg/kg/injection, schedule: Q01DX001 (ip), vehicle: DMSO): 0 of 8
survivor count (dose: 512.0 mg/kg/injection, schedule: Q01DX001 (oral), vehicle: DMSO): 1 of 8
survivor count (dose: 512.0 mg/kg/injection, schedule: Q01DX001 (sc), vehicle: DMSO): 0 of 8
survivor count (dose: 1024.0 mg/kg/injection, schedule: Q01DX001 (oral), vehicle: DMSO): 0 of 8
